{"source": "paper doi:10.1101/2023.01.25.525625", "binders": {"B1": {"name": "Solanum tuberosum REMORIN1.3 (StREM1.3), wild type, split-ubiquitin yeast two-hybrid fusion (protein, UniProt P93788 1-198)", "chain": "MAELEAKKVEIVDPAPPAPGPVEAPKEVVADEKAIVAPALPPPAEEKEKPDDSKALVVVETKAPEPADEKKEGSIDRDAVLARVATEKRVSLIKAWEESEKSKAENKAQKKVSAIGAWENSKKANLEAELKKMEEQLEKKKAEYTEKMKNKIALLHKEAEEKRAMIEAKRGEDLLKAEELAAKYRATGTAPKKILGIF"}}, "key": {"[1]": {"target": "T1, StREM1.3^(S74D T86D S91D) phosphomimic variant, split-ubiquitin yeast two-hybrid bait (Solanum tuberosum) (UniProt P93788)", "T1 sequence": "B1 chain with S74D, T86D, S91D", "experiment": "two-hybrid"}, "[2]": {"target": "Solanum tuberosum REMORIN1.3 (StREM1.3), wild type, split-ubiquitin yeast two-hybrid fusion (Solanum tuberosum) (UniProt P93788)", "experiment": "two-hybrid"}}, "note": "Substitutions are numbered along the chain they refer to. These are yes or no findings as the source states them, for the method shown. Some results given as binding are weak or reduced against the parent protein; the word gives no strength. Sequences can lack the tags named with a protein.", "data": [{"binder": "B1", "values": [{"measurement": "binding", "setting": "[1]", "value": "binds"}, {"measurement": "binding", "setting": "[2]", "value": "binds"}]}]}
